Literature values as cited in US11833238B2, “Topical testosterone (T) for promoting hair growth-containing formulations” (priority 2012, dated 2023).
At least one structure is not confirmed: it was looked up by name or label, or the drawing left a doubt.

Test system: hair growth
Settings: taken orally; back, trunk, limbs, occasionally face; cited from earlier work

## Nc1cc(N2CCCCC2)nc(N)[n+]1[O-] [Minoxidil, minoxidil]
  length of induced hair, maximum: ≤ 3 cm
